Some of the results follow.
Assays:
Assay in all cases: log2 fold change, soluble protein after heating vs DMSO (PISA); higher = thermal stabilisation; K562 lysate, 10 uM; active = over 0.2 and 3.5 SD of the protein, either way, in both replicates (recomputed)
lapatinib = compound: CS(=O)(=O)CCNCc1ccc(-c2ccc3ncnc(Nc4ccc(OCc5cccc(F)c5)c(Cl)c4)c3c2)o1 [lapatinib]
How it was run: (§1)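 The values are log-two fold changes in thermal stability compared with solvent controls and come from duplicates. They were obtained by TMTpro 16plex LC-MS/MS, with channel sums equalised, on the supernatant after 21,000xg for 90 min. That supernatant came from crude K562 extract at 1 mg/mL protein treated with 10 μM compound for 30 min, heated for 3 min across 48°C-58°C, pooled and brought to 0.5% NP-40 at 4°C.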

By UniProt entry, the sequences of proteins in these tests, tags left out. Where a name states a change or a piece, a line headed by the entry shows the natural chain unless it says otherwise.
UniProt Q12874: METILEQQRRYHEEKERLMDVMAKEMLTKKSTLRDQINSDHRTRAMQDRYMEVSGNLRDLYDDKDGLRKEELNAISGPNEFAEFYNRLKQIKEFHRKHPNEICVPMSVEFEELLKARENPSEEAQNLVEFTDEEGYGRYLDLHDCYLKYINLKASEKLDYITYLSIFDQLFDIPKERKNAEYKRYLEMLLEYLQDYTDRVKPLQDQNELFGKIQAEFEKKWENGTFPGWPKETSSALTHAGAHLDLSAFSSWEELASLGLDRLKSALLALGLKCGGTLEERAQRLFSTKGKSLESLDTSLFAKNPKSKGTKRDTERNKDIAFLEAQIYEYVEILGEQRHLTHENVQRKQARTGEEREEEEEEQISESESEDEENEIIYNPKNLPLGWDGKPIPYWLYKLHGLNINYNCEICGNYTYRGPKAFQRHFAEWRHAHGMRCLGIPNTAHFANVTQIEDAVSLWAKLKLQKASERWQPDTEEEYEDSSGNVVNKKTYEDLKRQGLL
UniProt P63208, whole entry, looked up: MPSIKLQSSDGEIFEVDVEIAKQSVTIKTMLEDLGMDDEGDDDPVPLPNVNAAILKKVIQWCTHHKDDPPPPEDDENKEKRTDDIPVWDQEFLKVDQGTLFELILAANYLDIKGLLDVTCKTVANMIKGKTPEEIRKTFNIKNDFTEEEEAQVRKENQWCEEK
UniProt Q9Y3L3: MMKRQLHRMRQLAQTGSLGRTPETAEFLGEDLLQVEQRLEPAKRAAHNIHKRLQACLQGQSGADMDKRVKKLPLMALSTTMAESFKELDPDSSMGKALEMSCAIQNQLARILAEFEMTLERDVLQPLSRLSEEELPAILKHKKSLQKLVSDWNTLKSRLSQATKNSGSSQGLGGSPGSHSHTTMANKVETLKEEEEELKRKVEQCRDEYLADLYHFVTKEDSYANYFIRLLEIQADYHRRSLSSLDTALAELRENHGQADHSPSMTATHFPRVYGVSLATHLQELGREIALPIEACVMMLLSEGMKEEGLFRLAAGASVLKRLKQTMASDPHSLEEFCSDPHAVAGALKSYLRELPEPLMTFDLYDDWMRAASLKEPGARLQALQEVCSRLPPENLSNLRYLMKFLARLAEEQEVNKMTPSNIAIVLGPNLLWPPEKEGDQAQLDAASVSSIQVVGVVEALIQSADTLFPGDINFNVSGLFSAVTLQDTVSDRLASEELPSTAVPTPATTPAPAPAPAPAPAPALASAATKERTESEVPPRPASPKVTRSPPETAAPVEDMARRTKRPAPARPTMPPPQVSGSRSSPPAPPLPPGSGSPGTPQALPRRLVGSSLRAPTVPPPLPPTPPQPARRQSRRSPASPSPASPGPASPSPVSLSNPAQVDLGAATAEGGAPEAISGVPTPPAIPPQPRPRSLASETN
UniProt P55011: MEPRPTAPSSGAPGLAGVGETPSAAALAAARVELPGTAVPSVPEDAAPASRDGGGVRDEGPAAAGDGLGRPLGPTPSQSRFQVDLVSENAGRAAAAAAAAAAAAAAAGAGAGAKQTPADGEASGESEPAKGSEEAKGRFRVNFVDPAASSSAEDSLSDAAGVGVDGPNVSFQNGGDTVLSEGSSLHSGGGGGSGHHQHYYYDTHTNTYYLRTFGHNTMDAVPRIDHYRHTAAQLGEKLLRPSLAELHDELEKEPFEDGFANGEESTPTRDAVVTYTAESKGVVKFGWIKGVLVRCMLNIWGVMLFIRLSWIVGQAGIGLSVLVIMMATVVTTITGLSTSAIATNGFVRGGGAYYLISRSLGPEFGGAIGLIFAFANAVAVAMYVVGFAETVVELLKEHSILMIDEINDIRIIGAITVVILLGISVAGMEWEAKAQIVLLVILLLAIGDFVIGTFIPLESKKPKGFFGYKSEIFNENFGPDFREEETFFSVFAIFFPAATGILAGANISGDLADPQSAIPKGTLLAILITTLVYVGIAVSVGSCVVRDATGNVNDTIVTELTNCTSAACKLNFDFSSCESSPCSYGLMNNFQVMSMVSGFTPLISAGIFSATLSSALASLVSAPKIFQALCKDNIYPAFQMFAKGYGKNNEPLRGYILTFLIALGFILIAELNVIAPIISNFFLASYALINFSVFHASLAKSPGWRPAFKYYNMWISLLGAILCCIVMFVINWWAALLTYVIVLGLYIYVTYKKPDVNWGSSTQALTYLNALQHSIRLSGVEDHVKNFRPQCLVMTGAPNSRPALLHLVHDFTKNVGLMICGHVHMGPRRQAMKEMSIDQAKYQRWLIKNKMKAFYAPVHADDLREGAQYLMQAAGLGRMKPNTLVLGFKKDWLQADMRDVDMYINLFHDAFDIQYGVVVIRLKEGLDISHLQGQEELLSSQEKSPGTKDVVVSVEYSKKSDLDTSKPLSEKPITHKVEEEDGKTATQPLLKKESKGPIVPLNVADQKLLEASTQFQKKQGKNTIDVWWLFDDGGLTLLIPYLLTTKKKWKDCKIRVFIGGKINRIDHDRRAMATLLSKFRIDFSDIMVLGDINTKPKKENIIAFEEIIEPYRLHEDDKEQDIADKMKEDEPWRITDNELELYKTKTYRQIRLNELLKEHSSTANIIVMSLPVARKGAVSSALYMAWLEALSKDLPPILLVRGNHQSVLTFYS
UniProt P41440: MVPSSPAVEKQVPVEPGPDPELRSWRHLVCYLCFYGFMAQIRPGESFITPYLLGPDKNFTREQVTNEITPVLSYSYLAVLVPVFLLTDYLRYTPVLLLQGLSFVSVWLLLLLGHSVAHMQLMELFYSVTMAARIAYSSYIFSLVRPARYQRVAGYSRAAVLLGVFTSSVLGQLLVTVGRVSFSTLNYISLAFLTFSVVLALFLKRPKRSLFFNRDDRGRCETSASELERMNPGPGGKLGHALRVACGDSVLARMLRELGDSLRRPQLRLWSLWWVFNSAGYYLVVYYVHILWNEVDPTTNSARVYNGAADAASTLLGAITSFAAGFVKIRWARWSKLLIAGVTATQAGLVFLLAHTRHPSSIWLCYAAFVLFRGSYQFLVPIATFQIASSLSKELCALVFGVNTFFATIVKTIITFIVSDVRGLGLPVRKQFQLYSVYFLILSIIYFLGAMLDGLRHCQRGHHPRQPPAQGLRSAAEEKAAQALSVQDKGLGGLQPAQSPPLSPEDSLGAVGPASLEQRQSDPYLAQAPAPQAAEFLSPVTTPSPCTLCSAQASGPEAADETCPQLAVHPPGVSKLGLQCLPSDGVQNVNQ
UniProt A0MZ66, whole entry, looked up: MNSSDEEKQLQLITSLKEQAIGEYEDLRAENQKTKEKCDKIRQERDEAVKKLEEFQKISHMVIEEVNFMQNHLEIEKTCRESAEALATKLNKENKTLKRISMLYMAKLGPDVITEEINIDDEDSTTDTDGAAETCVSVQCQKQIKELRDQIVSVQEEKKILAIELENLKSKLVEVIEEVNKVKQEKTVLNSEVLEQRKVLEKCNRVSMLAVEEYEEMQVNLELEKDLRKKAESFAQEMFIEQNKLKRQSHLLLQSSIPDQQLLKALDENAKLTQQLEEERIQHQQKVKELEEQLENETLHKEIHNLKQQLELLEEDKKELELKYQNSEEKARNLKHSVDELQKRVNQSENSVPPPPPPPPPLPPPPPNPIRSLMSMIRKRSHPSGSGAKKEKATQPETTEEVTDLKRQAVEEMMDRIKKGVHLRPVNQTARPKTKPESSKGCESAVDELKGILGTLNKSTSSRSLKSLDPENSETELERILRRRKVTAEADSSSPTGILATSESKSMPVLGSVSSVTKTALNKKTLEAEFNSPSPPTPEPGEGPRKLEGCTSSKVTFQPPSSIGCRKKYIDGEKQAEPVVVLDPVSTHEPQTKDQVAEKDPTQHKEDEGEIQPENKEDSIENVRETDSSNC
UniProt Q08357: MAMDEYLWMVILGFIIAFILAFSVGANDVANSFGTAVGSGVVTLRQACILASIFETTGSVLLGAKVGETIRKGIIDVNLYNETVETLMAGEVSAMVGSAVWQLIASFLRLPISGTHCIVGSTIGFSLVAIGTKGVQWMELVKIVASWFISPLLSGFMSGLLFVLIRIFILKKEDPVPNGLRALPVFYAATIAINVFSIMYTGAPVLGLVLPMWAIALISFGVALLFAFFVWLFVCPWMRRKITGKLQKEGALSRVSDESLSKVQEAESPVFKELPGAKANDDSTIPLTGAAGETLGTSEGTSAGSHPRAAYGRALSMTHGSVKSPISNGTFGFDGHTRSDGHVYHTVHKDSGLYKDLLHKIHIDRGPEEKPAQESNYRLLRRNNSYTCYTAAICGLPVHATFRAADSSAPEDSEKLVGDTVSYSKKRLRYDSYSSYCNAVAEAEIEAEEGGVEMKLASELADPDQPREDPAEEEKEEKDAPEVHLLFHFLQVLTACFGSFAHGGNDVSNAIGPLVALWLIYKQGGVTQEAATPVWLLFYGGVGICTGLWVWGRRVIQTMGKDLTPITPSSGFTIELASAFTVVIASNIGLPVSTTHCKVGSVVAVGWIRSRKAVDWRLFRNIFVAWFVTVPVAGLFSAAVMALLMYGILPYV
UniProt Q9H299: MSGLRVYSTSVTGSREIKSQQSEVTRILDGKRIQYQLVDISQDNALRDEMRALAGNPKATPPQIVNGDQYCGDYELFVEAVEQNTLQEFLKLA
UniProt P30740: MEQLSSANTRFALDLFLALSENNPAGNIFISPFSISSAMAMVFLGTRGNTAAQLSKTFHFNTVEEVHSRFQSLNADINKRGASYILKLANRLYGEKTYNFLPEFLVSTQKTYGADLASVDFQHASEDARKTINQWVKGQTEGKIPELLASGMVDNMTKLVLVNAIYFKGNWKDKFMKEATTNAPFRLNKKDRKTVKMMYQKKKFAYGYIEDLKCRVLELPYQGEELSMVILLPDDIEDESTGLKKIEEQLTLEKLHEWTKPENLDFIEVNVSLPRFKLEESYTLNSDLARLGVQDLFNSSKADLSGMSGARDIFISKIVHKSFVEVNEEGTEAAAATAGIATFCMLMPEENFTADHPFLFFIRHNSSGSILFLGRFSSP
UniProt O75533, whole entry, looked up: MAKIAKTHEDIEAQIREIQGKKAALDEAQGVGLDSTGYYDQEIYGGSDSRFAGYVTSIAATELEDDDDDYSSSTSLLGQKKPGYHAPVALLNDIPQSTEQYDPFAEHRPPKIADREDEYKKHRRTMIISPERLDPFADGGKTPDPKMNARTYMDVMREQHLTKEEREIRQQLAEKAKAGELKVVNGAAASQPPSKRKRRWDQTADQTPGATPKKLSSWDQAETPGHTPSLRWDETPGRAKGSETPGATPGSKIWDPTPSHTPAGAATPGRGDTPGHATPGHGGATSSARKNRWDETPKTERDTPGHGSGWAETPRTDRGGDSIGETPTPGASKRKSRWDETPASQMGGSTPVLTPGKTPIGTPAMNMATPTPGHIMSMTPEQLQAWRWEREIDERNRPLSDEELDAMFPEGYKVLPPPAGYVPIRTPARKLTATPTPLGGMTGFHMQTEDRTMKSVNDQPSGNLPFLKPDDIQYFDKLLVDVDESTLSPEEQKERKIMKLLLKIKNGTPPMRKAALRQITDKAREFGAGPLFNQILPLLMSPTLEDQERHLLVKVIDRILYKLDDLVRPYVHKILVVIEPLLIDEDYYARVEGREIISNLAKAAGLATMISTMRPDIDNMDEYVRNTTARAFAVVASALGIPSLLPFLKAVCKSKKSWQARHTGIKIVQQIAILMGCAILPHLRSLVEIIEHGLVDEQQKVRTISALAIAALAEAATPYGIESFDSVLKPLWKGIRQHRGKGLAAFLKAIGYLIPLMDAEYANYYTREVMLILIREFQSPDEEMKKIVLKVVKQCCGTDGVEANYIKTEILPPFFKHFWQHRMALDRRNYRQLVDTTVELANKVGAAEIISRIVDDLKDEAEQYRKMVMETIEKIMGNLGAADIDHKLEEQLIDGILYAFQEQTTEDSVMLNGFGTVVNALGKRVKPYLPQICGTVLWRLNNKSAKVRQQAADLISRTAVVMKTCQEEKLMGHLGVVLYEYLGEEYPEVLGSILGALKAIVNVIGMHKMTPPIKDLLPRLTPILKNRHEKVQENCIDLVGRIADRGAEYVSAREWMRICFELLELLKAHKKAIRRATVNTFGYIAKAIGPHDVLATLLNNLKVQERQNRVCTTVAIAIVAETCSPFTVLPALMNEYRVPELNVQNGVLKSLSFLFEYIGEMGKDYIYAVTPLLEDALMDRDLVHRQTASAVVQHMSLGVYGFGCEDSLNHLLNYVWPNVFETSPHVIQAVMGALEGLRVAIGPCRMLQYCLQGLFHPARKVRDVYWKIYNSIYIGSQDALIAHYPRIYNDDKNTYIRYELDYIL
UniProt O75563, whole entry, looked up: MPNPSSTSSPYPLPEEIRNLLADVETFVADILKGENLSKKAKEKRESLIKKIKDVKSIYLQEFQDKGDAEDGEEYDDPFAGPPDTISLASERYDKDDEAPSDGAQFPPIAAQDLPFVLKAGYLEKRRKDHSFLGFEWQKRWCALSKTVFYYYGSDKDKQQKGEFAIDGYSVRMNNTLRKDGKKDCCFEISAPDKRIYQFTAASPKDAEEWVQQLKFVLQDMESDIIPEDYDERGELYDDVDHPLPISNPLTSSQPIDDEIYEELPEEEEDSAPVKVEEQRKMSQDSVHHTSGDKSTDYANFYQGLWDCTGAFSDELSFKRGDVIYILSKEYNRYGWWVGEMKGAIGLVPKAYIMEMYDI

pictilisib = compound: CS(=O)(=O)N1CCN(Cc2cc3nc(-c4cccc5[nH]ncc45)nc(N4CCOCC4)c3s2)CC1 [pictilisib]
How it was run: as §1

crizotinib = compound: C[C@@H](Oc1cc(-c2cnn(C3CCNCC3)c2)cnc1N)c1c(Cl)ccc(F)c1Cl [crizotinib]
How it was run: as §1

[1] = compound: C[C@H](C1=CC=C(C=C1)C(=O)NC2=C3C=CNC3=NC=C2)N
How it was run: as §1

duvelisib = compound: C[C@H](Nc1ncnc2nc[nH]c12)c1cc2cccc(Cl)c2c(=O)n1-c1ccccc1 [duvelisib]
How it was run: as §1

gandotinib = compound: Cc1cc(Nc2cc(CN3CCOCC3)c3nc(C)c(Cc4ccc(Cl)cc4F)n3n2)n[nH]1 [gandotinib]
How it was run: as §1

tozasertib = compound: Cc1cc(Nc2cc(N3CCN(C)CC3)nc(Sc3ccc(NC(=O)C4CC4)cc3)n2)n[nH]1 [tozasertib]
How it was run: as §1

doramapimod = compound: Cc1ccc(-n2nc(C(C)(C)C)cc2NC(=O)Nc2ccc(OCCN3CCOCC3)c3ccccc23)cc1 [doramapimod]
How it was run: as §1

bafetinib = compound: Cc1ccc(NC(=O)c2ccc(CN3CC[C@H](N(C)C)C3)c(C(F)(F)F)c2)cc1Nc1nccc(-c2cncnc2)n1 [bafetinib]
How it was run: as §1

[2] = compound: Cc1cccc(CC(=O)N2CCc3c2ccc(-c2cn(C)c4ncnc(N)c24)c3F)n1
How it was run: as §1

Row | Target | log2 fold change (lapatinib) | log2 fold change (pictilisib) | log2 fold change (crizotinib) | log2 fold change [1] | log2 fold change (duvelisib) | log2 fold change (gandotinib) | log2 fold change (tozasertib) | log2 fold change (doramapimod) | log2 fold change (bafetinib) | log2 fold change [2]
1 | SF3A3 (UniProt Q12874) | inactive: 0.002 | inactive: 0.026 | inactive: 0.013 | inactive: 0.09 | inactive: 0.005 | inactive: -0.088 | inactive: -0.029 | inactive: 0 | inactive: -0.009 | inactive: -0.043
2 | SFR1 isoform 2 (UniProt Q86XK3) | inactive: 0.001 | inactive: 0.053 | inactive: 0.006 | inactive: 0.09 | inactive: 0.043 | inactive: 0.169 | inactive: -0.002 | inactive: 0.068 | inactive: -0.097 | active: 0.261
3 | SGO1 (UniProt Q5FBB7) | inactive: 0.035 | inactive: -0.03 | inactive: -0.063 | inactive: -0.051 | inactive: -0.019 | inactive: 0.016 | inactive: 0.026 | inactive: 0.031 | inactive: 0.018 | inactive: 0.064
4 | SKP1 (UniProt P63208) | inactive: 0.007 | inactive: -0.04 | inactive: 0.058 | inactive: 0.009 | inactive: 0.02 | inactive: 0.022 | inactive: -0.03 | inactive: 0.013 | inactive: 0.152 | inactive: -0.048
5 | SH3BP1 (UniProt Q9Y3L3) | inactive: -0.029 | inactive: -0.06 | inactive: -0.007 | inactive: -0.017 | inactive: 0.006 | inactive: -0.008 | inactive: 0.044 | inactive: 0.03 | inactive: -0.024 | inactive: 0.042
6 | SF3A2 (UniProt Q15428) | inactive: 0.035 | inactive: 0.021 | inactive: -0.006 | inactive: -0.124 | inactive: -0.006 | inactive: -0.003 | inactive: -0.007 | inactive: 0.002 | inactive: 0.027 | inactive: 0.044
7 | SHPRH (UniProt Q149N8) | inactive: -0.068 | inactive: 0.008 | inactive: -0.001 | inactive: -0.194 | inactive: -0.008 | inactive: -0.176 | inactive: 0.204 | inactive: 0.002 | inactive: -0.092 | inactive: -0.057
8 | SLC12A2 (UniProt P55011) | inactive: -0.067 | inactive: -0.015 | inactive: -0.082 | inactive: 0.111 | inactive: -0.089 | inactive: -0.083 | inactive: -0.02 | inactive: -0.003 | inactive: -0.046 | inactive: -0.032
9 | SLC19A1 (UniProt P41440) | inactive: -0.055 | inactive: 0.005 | inactive: -0.002 | active: -0.203 | inactive: -0.037 | inactive: 0.148 | inactive: -0.021 | inactive: 0.004 | inactive: -0.053 | inactive: 0.07
10 | SIN3A (UniProt Q96ST3) | inactive: -0.004 | inactive: -0.028 | inactive: -0.006 | inactive: 0.004 | inactive: 0.012 | inactive: -0.027 | inactive: -0.015 | inactive: 0.004 | inactive: -0.045 | inactive: 0.001
11 | SHTN1 (UniProt A0MZ66) | inactive: -0.013 | inactive: -0.006 | inactive: 0.02 | inactive: -0.017 | inactive: -0.006 | inactive: -0.003 | inactive: 0.005 | inactive: 0.007 | inactive: -0.017 | inactive: -0.014
12 | SLC20A2 (UniProt Q08357) | inactive: 0.01 | inactive: -0.046 | inactive: 0.116 | inactive: 0.006 | inactive: 0.01 | inactive: -0.018 | inactive: -0.098 | inactive: 0.001 | inactive: 0.014 | inactive: -0.039
13 | SGTA (UniProt O43765) | inactive: 0.008 | inactive: -0.027 | inactive: 0.01 | inactive: 0.026 | inactive: 0.016 | inactive: 0.007 | inactive: 0.002 | inactive: -0.009 | inactive: 0.03 | inactive: -0.045
14 | SF3B3 (UniProt Q15393) | inactive: -0.025 | inactive: -0.017 | inactive: -0.015 | inactive: -0.06 | inactive: 0.041 | inactive: 0.019 | inactive: -0.013 | inactive: 0.029 | inactive: -0.025 | inactive: 0.007
15 | SLC1A5 (UniProt Q15758) | inactive: 0.008 | inactive: 0.036 | inactive: 0.017 | inactive: -0.13 | inactive: 0.012 | inactive: 0.054 | inactive: -0.029 | inactive: -0.022 | inactive: 0.02 | inactive: 0.047
16 | SH3BGRL3 (UniProt Q9H299) | inactive: 0.023 | inactive: 0.023 | inactive: 0.009 | inactive: -0.011 | inactive: -0.032 | inactive: 0.026 | inactive: 0.027 | inactive: 0.008 | inactive: 0.038 | inactive: 0.007
17 | SIDT2 isoform 2 (UniProt Q8NBJ9) | inactive: 0.027 | inactive: -0.017 | inactive: -0.027 | inactive: 0.039 | inactive: 0.042 | inactive: -0.009 | inactive: -0.131 | inactive: -0.036 | inactive: 0.028 | inactive: -0.081
18 | SH2B1 (UniProt Q9NRF2) | inactive: 0.113 | inactive: -0.287 | inactive: 0.014 | inactive: -0.076 | inactive: 0.102 | inactive: 0.054 |  | inactive: 0 | inactive: 0.085 | inactive: -0.038
19 | SERPINB1 (UniProt P30740) | inactive: -0.005 | inactive: -0.019 | inactive: 0.025 | inactive: -0.04 | inactive: -0.004 | inactive: 0.008 | inactive: -0.001 | inactive: -0.027 | inactive: -0.022 | inactive: -0.001
20 | SFT2D2 (UniProt O95562) | inactive: 0.008 | inactive: -0.071 | inactive: 0.036 | inactive: 0.099 | inactive: 0.077 | inactive: -0.048 | inactive: 0.058 | inactive: 0.098 | inactive: -0.091 | inactive: 0.009
21 | SF3B1 (UniProt O75533) | inactive: -0.002 | inactive: -0.034 | inactive: -0.044 | inactive: -0.045 | inactive: 0.005 | inactive: -0.024 | inactive: 0.016 | inactive: 0.04 | inactive: -0.023 | inactive: 0.011
22 | SHROOM1 (UniProt Q2M3G4) | inactive: 0.012 | inactive: -0.016 | inactive: 0 | inactive: 0.044 | inactive: -0.02 | inactive: -0.05 | inactive: 0.001 | inactive: 0.009 | inactive: -0.128 | inactive: -0.036
23 | SLC15A4 (UniProt Q8N697) | inactive: -0.058 | inactive: -0.037 | inactive: 0.002 | inactive: -0.051 | inactive: 0.03 | inactive: 0.054 | inactive: 0.057 | inactive: 0.123 | inactive: 0 | inactive: -0.132
24 | SH3GLB1 isoform 2 (UniProt Q9Y371) | inactive: 0.059 | inactive: 0.03 | inactive: 0.031 | inactive: -0.004 | inactive: -0.018 | inactive: 0.055 | inactive: 0.015 | inactive: 0.142 | inactive: -0.111 | inactive: 0.062
25 | SKAP2 (UniProt O75563) | inactive: -0.003 | inactive: -0.007 | inactive: 0.042 | inactive: -0.06 | inactive: -0.037 | inactive: 0.067 | inactive: 0.026 | inactive: 0.027 | inactive: -0.056 | inactive: 0.08
26 | SIGMAR1 (UniProt Q99720) | inactive: -0.006 | inactive: -0.064 | inactive: -0.037 | inactive: -0.138 | inactive: 0.008 | inactive: 0.064 | inactive: -0.017 | inactive: -0.001 | inactive: 0.008 | inactive: 0.127
27 | SERPINB6, A0A087X1N8 | inactive: 0.039 | inactive: -0.012 | inactive: 0.007 | inactive: -0.011 | inactive: 0.005 | inactive: 0.007 | inactive: -0.04 | inactive: -0.054 | inactive: 0.079 | inactive: -0.044

A second format for part of the listing above:
Row	Target	log2 fold change (lapatinib)	log2 fold change (pictilisib)	log2 fold change (crizotinib)	log2 fold change [1]	log2 fold change (duvelisib)	log2 fold change (gandotinib)	log2 fold change (tozasertib)	log2 fold change (doramapimod)	log2 fold change (bafetinib)	log2 fold change [2]
17	SIDT2 isoform 2 (UniProt Q8NBJ9)	inactive: 0.027	inactive: -0.017	inactive: -0.027	inactive: 0.039	inactive: 0.042	inactive: -0.009	inactive: -0.131	inactive: -0.036	inactive: 0.028	inactive: -0.081
27	SERPINB6, A0A087X1N8	inactive: 0.039	inactive: -0.012	inactive: 0.007	inactive: -0.011	inactive: 0.005	inactive: 0.007	inactive: -0.04	inactive: -0.054	inactive: 0.079	inactive: -0.044

From the supplement of paper PMC10849652
